Laboratory results published in PMC10163288.
Some of the results follow.

B1: il2ra_site1_2b5i_normal_mot_HHH_b2_04910_000000118_0001_1_19_H_._HHH_b1_03583_0001_0000600026_0000001_0_af2pred_dldesign_0_af2pred (protein)
chain: SSSSSTEEIRKLLLEADKLKQAGKDEEALEVLEKALELAKKAKNPLWIKIIESAIKDLLESSSSS
B2: il2ra_site2_3nfp_normal_mot_HHH_b1_00660_af2_000000090_0001_40_57_H_._HHH_b1_02730_0001_0001000022_0000001_0 (protein)
chain: SSSSSDEEVRELLEQLRELIEKNDEEEFERLSREITNLAYELNNFELFALVQELRARFISSSSSS
B3: il2ra_site1_2b5i_normal_mot_f5ff40796168375b462bec8614a1db4a_0001_1_000000138_0001_53_65_H_._HHH_b1_07093_0001_0000700041_0000001_0_af2pred_dldesign_0_af2pred (protein)
chain: SSSSEDARELVLELKEEAERLAAAGRREEAKRLLILALRLAKKNNDEELVEEIEALLKELESSSS
B4: il2ra_site1_2b5i_sap_21_mot_HHH_b2_07467_000000079_0001_1_17_H_._5f3e9e6710cf722fe56a0b12d5cb6937_0001_0001_0000300034_0000001_0_0001_af2pred_dldesign_0_af2pred (protein)
chain: SSSSSSKEALRLFLEANELYQAGKEEEAKKKLEEALELAKKEGTTSIAKLIENALKILSSSSSSS
B5: il2ra_site1_2b5i_normal_mot_HHH_b1_08745_af2_000000166_0001_39_57_H_._HHH_b2_03408_0001_0000300018_0000001_0_af2pred_0001_af2pred (protein)
chain: SSSSSEEAEKVFELIEEANRLSRNGNPEQAREVLERALEIAEELGSRNLFRFVRAALKLLSSSSS
B6: il2ra_site1_2b5i_normal_mot_22370d59370c406a0c205a431f537cfa_0001_af2_000000141_0001_1_31_H_._HHH_b2_04268_af2_0001_0001200053_0000001_0_af2pred_dldesign_0_af2p … (protein)
chain: SSSSSKEEALEVSDVIEELVEKLGLSDEQYATLSRLAVDLLYKGVSAEEIKERLKALAEELSSSS
B7: il2ra_site1_1z92_normal_mot_30aa582283ecb64a35315be28fff3e94_0001_000000110_0001_35_49_H_._HHH_b2_03912_0001_0000100005_0000001_0 (protein)
chain: SSSSEQLKRIAERLVEDFVRLADLSEEDQKYLEEVAKELLEEGYSSQEIAEILAKEALKLESSSS
B8: il2ra_site1_1z92_normal_mot_203a44625a3a2ba431098544127a80a6_0001_af2_000000214_0001_15_33_H_._HHH_b2_04566_0001_0000100008_0000001_0_af2pred_dldesign_0_af2pred (protein)
chain: SSSDPERRRRTLDKVVDIAAEAAGLSEEQRAKLRALVDELIAAGTPLAEAMKLINKRAAELSSSS
B9: il2ra_site2_3nfp_sap_28_mot_26b1ad55b226f03db0745a42e2bcfdd2_0001_af2_000000054_0001_35_50_H_._1fff0394edc8abfb79f738926a078c58_0001_0001_0000300019_0000001_0_0 … (protein)
chain: SSSSSSSDEEEVEELLEEAKRIDDEFEFAAVLALALFIAVESNNEELEKLVKEVARRSWSSSSSS
B10: il2ra_site2_2erj_sap_12_mot_HHH_b1_02466_000000018_0001_22_38_H_._HHH_b1_03184_0001_0000500013_0000001_0_0001 (protein)
chain: SSSNEDLHRAYELANEIMEALHKGDKERVEELLEELREIAERLQSDTLKEIIEFLEELLERQSSS
B11: il2ra_site1_2b5i_sap_10_mot_ems_3hM_3687_af2_000000248_0001_45_64_H_._HHH_b1_00192_af2_0001_0000400049_0000001_0_0001 (protein)
chain: SSSSSEATRRAQELFKEADRLDREGNPEEARKLLEEAEEVAEEGNSRAILKLIRFALEQVSSSSS
B12: il2ra_site2_2erj_normal_mot_c2bf78bdce995293a161f7082e24b401_0001_af2_000000082_0001_17_32_H_._HHH_b2_07485_0001_0000600036_0000001_0 (protein)
chain: SSSSSEEREEIEELIERLEEAIERGDLEQAYRLANRALHLISKLGDEELQEELAETLERASSSSS
B13: il2ra_site2_3nfp_normal_mot_HHH_b1_00660_af2_000000090_0001_40_57_H_._HHH_b2_00996_0001_0000300010_0000001_0_af2pred_0001_af2pred_1 (protein)
chain: SSSSSEEEEARRLVEEVEELLKEGDPEEAEKLLEKAILVVAELGDFELFALLSELRELLESSSSS
B14: il2ra_site2_2erj_normal_mot_HHH_b2_01275_af2_000000073_0001_23_39_H_._HHH_b2_05199_af2_0001_0000200020_0000001_0 (protein)
chain: SSSSDEKLRELYELAVLLVRLLWEGDEEKFEEVLEQAKKLAEERDSRSAEEFLEELEKRLSSSSS
B15: il2ra_site2_2erj_normal_mot_HHH_b2_01275_af2_000000073_0001_23_39_H_._HHH_b1_05548_af2_0001_0000200008_0000001_0 (protein)
chain: SSSSSDERLRRVYELAVRLLAAQSEEEIEKVYEEVRKLAEELDNPELEELVEFLFRHARSSSSSS
B16: il2ra_site2_3nfp_normal_mot_ems_p1-15H-GBL-16H-GBL-14H_0089_0001_0001_0001_af2_000000072_0001_19_33_H_._2582da7ae1e3161411d063f18acf3b14_0001_1_0001_0000200003_ … (protein)
chain: PDVSRILYKLLEEDPDNDLAFELFALLLEAILKGDEELRERLKEAAELLEEGDPERAEELLERLR
B17: il2ra_site2_2erj_sap_24_mot_3b06bd03f1c6bceadc68eab912867b79_0001_000000296_0001_36_50_H_._HHH_b2_06883_af2_0001_0000600006_0000001_0_0001_af2pred_0001_1_af2pre … (protein)
chain: SSSSDVEEIIEEIEELLERNDREQVEHLAEELLELAQEINDPELLFAVLEVLERVKEFLDSSSSS
B18: il2ra_site1_1z92_normal_mot_9c3e5e2d2b9ffb70dc788f52fbfab6d5_0001_1_af2_000000019_0001_53_65_H_._HHH_b1_04252_af2_0001_0000100010_0000001_1 (protein)
chain: SSSSDELEEIAREIVEELVKEFDLSERQKEELERVAERLLEAGSDEEKIRKILHKLARAAGSSSS

The binders below were run against il2ra, P01589 (assay: yeast display titration).

Apparent Kd, inactive:
B1 no binding seen, B2 no binding seen, B3 no binding seen, B4 no binding seen, B5 no binding seen, B6 no binding seen, B7 no binding seen, B8 no binding seen, B9 no binding seen, B10 no binding seen, B11 no binding seen, B12 no binding seen, B13 no binding seen, B14 no binding seen, B15 no binding seen, B16 no binding seen, B17 no binding seen, B18 no binding seen
